Laboratory results taken from PubChem BioAssay AID652054 (National Center for Advancing Translational Sciences (NCATS), 2013).
“And” between values parts separate entries of the source, which are not always exact repeats. Equal values may be shown once. Among all 360,000 compounds or so, about 9,100 (2.5%) were called active. The shares of active, inactive and inconclusive entries below differ from those in the screen. No stated cut-off is given here; in the data, active means max response below about -50%; inconclusive means no clear call, values can overlap the other calls; inactive means above that.

Protein sequences, listed by entry. Tags and fused reporters are not part of them.
UniProt P35462, whole entry, looked up: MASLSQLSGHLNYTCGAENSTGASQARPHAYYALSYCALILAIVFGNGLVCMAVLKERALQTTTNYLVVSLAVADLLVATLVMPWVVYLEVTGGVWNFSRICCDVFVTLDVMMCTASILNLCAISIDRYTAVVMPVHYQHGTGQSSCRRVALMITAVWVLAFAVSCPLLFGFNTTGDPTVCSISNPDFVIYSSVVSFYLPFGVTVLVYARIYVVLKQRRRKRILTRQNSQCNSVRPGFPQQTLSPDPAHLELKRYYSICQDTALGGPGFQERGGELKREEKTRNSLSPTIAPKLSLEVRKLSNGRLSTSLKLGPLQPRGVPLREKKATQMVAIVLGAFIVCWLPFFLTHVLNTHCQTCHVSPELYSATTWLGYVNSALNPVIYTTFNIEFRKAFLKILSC

Target: D(3) dopamine receptor (Homo sapiens) (UniProt P35462)
Test: qHTS of D3 Dopamine Receptor Antagonist: qHTS
Conditions: D3R cells, DiscoveRx beta-arrestin luminescence, antagonist mode; stronger effect = lower value
In short: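 Cells plated overnight at 1500 cells/well, then exposed to library compounds with dopamine controls for 90 minutes at 37 degrees C. DiscoveRx reagent added for 30–60 minutes at room temperature; luminescence read, quantitative HTS format.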
On the % scale 0 is the no-effect control and ±100 the full control effect.

Structure (SMILES) | max response, negative = inhibition
O=c1[nH][nH]c(-c2ccccc2)c1C=Nc1ccc(Cl)cc1 | inconclusive: -31.2%
CCOC(=O)CSc1nc(C)cc(Oc2ccc(=O)n(C)n2)n1 | inconclusive: -32.3%
O=S(=O)(Nc1nc2ccccc2nc1NCCO)c1cccc(Cl)c1 | inconclusive: -32.3%
CC1CCC(C(C)C)C(OC(=O)Cn2c(-c3ccc(Br)cc3)[n+](C)c3ccccc32)C1 (configuration not stated) | active: -66.6% and inconclusive: -32.5%
Cc1oc(CC(C)C)cc1C(=O)Nc1cccc2ccccc12 | inactive: 5.13%
Cc1ccc(O)c(CNc2cccc(C)n2)c1 | inactive: 15.7%
S=c1[nH]cc(-c2ccc(Cl)cc2)n1-c1ccccc1 | inconclusive: -33.6%
COc1ccc(NC(=O)C[C@H]2C(=O)N(c3ccc(Br)cc3)C[C@@H]2c2ccc(OC)cc2)cc1 | inactive: -6.2%
O=C1Nc2cc3c(cc2C1=O)sc1ccccc13 | inconclusive: -39.8%
COc1ccccc1-c1nc(SCc2ccccn2)n[nH]1 | inactive: -21.3%
CCCCN1CCNC[C@@H]1Cc1ccccc1 | inconclusive: -31.2%
C#CCOc1ccc(/C=C2/C(=O)N(c3cccc(C(=O)O)c3)N=C2C)cc1OC | inconclusive: -36.8%
Cc1cccc(CS(=O)(=O)Cc2ccc(C(=O)NCc3cccnc3)o2)c1 | inactive: 48%
Cc1ccc(-c2nc(CN3CCCCC3)cc(CN3CCCCC3)c2O)cc1 | active: -54.7%
CC(CCc1ccccc1)NC(=O)Cc1ccc(Br)cc1 (configuration not stated) | inconclusive: -34.1%
COC(=O)COc1cccc2c(=O)n(CC(=O)NCc3ccc(F)cc3)ccc12 | inconclusive: -39.4%
COc1ccc(C(=O)Nc2ccc(NC(=O)c3ccccn3)cn2)cc1 | inactive: -13.6%
Cc1nc2ccccc2c2c(N)cccc12 | inactive: 10.4%
CCOc1ccccc1C(=O)NC1CCN(Cc2ccccc2)CC1 | active: -72.8%

Structure (SMILES) | max response, negative = inhibition
COc1ccc(Cl)cc1-c1cc(C(=O)NCc2ccc(F)cc2)[nH]n1 | inconclusive: -31.2%
CCOC(=O)N1CCN(C(=O)CSc2nnc(-c3cc(OC)cc(OC)c3)o2)CC1 | inactive: -24.3%
O=C(OCc1c(-c2ccccc2)ncc2ccccc12)c1cccc(Br)c1 | inconclusive: -46.4%
N#C/C(=C\c1cn(Cc2ccccc2F)c2ccccc12)C(=O)NCc1ccco1 | inactive: 13%
CC(C)(C)c1cnnn1-c1ccc(/C=N/Nc2ccc([N+](=O)[O-])cc2)cc1 | active: -56.6%
Cc1ccc(S(=O)(=O)N(C)CC(=O)NCCCn2ccnc2)cc1 | inactive: 2.76%
Cc1c(NC(=O)c2cc3ccccc3c(=O)s2)c(=O)n(-c2ccccc2)n1C | inconclusive: -37.9%
O=[N+]([O-])c1cnc(Nc2ccccc2)nc1Nc1ccccc1 | active: -83.1%
O=C1NC[C@@H](CCCCN2C[C@H](Cc3ccc(O)cc3)N(CC3CCCCC3)C(=O)C2=O)N(CCc2ccccc2)C1=O | inconclusive: -49.8%
COc1ccccc1C(=O)Nc1ccc(C)c(S(=O)(=O)N2CCCCC2)c1 | inconclusive: -46.4%
O=S(=O)(/N=C(/Sc1ccccc1)c1ccccc1)c1ccccc1 | inconclusive: -32.9%
CCOC(=O)N1C/C(=C\c2ccccc2)C(=O)/C(=C/c2ccccc2)C1 | active: -52.4%
Cc1[nH]c2c(C)cccc2c(=O)c1CN1CCCCCC1 | inconclusive: -43.7%
CC1CCCN(CCOCCOc2ccccc2-c2ccccc2)C1 (configuration not stated) | inconclusive: -37%
OCCN1CCN(Cc2cc(Br)cc(Br)c2O)CC1 | active: -51.4%
CCc1ccc(S(=O)(=O)NC2CC(C)(C)NC(C)(C)C2)cc1 | inconclusive: -37.9%
O=C(COC(=O)c1ccc(S(=O)(=O)N2CCOCC2)cc1)Nc1nc(-c2ccccc2)cs1 | inconclusive: -40.9%
CCOc1cc(/C=C2\SC(N3CCCC(C)C3)=NC2=O)ccc1O (configuration not stated) | inconclusive: -34.1%
CNC(=O)C[C@H]1C(=O)N(CCc2ccccc2)C[C@@H]1CSC | inactive: 10.6%

Structure (SMILES) | max response, negative = inhibition
CCN1CCN(c2nc(Nc3ccc(C)c(C)c3)nc(N)c2[N+](=O)[O-])CC1 | active: -82.9%
O=C(Nc1cccc(/C=C/c2ccccn2)c1)c1cc(Cl)ccn1 | inactive: 3.31%
O=C(NC(c1cccnc1)C(F)(F)F)c1cc(COc2ccc3c(c2)CCCC3)on1 (configuration not stated) | inactive: 35.2%
COc1ccc(/C(C)=N\Nc2nc(-c3ccccc3)cc(=O)[nH]2)cc1 | inactive: 3.82%
Oc1cccc2ccc(/C=C/c3cccs3)nc12 | active: -57.2%
O=C(c1cc(COc2ccc(F)cc2Cl)on1)N1CCCC(c2ccccc2)C1 (configuration not stated) | inactive: -17.6%
CCOC(=O)CNC1CC(=O)N(c2cccc(Cl)c2)C1=O (configuration not stated) | inactive: -24.3%
C=CCc1ccc(OCC(O)CN2CCN(Cc3ccccc3)CC2)c(OC)c1 (configuration not stated) | inconclusive: -45.2%
Cc1ccc(CNC(=O)c2ccc(N3CCc4ccccc43)c([N+](=O)[O-])c2)cc1 | inconclusive: -34.9%
CC(C)NC(=O)c1ccc(-c2cc(C(F)(F)F)ccc2Cl)o1 | inconclusive: -34%
COc1ccc(C2CC(c3ccccc3)Nc3nc(NC(=O)c4cccs4)nn32)cc1 (configuration not stated) | inconclusive: -30.9%
O=C1CN(C(=O)CCN2CCOCC2)C(c2ccccc2)c2cc(Br)ccc2N1 (configuration not stated) | inconclusive: -30.9%
Cc1ccc(S(=O)(=O)CCN2CCN(c3ccccn3)CC2)cc1 | inconclusive: -31.5%
CCC(CC)N1CCN(CC2CC=CCC2)CC1 (configuration not stated) | inconclusive: -41.4%
CCN(CC)c1ccc(C(=O)NNC(=O)CCl)cc1 | active: -126%
CCc1cc(C(=O)NNC(=S)Nc2cccc(C)c2)cs1 | active: -101%
NC[C@H](Cc1ccccc1)NCCCCC1CCCCC1 | inconclusive: -39.1%
O=C(CN1CC(=O)Nc2ccccc21)Nc1ccc(F)c(F)c1 | inactive: -3.31%
C(=C\c1ccccc1)/CN1CCN(C(c2ccccc2)c2nnnn2C2CCCC2)CC1 (configuration not stated) | inconclusive: -49.9%

2 compounds drawn at random from the list so far, as already listed:
Structure (SMILES) | max response, negative = inhibition
O=C(NC(c1cccnc1)C(F)(F)F)c1cc(COc2ccc3c(c2)CCCC3)on1 (configuration not stated) | inactive: 35.2%
C(=C\c1ccccc1)/CN1CCN(C(c2ccccc2)c2nnnn2C2CCCC2)CC1 (configuration not stated) | inconclusive: -49.9%
